Measurements from patent publication US7045339B2, “Electron donors for chlorinated solvent source area bioremediation” (SRP Technologies, Inc., priority 2002, dated 2006).

Assay: Field evaluation of enhanced in situ bioremediation at Test Area North (sodium lactate injection, well TSF-05)

With CC(O)C(=O)[O-].[Na+] (centres unmarked) [sodium lactate] as the compound, how does the “Reductive dechlorination of TCE to ethene” value (all wells receiving significant lactate concentrations) read?
The value was “Enhanced reductive dechlorination of TCE to ethene was observed”.

What about the “TCE concentrations deep in the aquifer soon after addition began” value (well TAN-26, FIG. 4) of the same compound?
Its value is “dramatic increase”.
